# According to patent publication US20180208664A1 (APOGENIX, published 2018):
# Protein sequences, listed by entry. Tags and fused reporters are not part of them. Residues count along the entry.
# UniProt P48023: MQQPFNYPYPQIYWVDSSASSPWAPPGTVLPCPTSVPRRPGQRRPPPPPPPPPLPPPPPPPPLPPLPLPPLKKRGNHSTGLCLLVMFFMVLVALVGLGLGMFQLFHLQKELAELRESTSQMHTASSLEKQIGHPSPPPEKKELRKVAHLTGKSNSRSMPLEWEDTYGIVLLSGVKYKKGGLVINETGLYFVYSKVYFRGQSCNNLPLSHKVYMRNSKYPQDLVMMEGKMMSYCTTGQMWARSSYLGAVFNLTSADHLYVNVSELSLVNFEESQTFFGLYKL
# UniProt P63308, residues 141-280: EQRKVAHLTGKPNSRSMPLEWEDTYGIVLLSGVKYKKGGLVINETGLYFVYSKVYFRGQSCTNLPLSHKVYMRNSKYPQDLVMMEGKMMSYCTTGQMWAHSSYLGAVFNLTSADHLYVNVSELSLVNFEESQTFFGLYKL
# UniProt P41047, residues 140-279: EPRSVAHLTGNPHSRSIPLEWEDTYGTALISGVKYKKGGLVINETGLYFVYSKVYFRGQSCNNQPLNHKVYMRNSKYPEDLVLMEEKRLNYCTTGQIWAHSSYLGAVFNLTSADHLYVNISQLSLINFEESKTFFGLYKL
# No constants are given. Whether binding was seen depends on the method and setting. Some binding calls cover weakened binding; strength is not graded here. Ends that are not written are not given here.
# B1: rabbit monoclonal anti-CD95L antibody clone 145-12 (antibody, V domains shown)
# VH: QSLEESGGDLVKPGASLTLTCTASGFSFSSGYDMCWVRQAPGKGLEWIACIDTDNDATYYASWAKGRFTISKPSSTTVLLQITSLTAADTATYFCATTHGDYVAFKLWGPGTLVTVSS
# VL: QVLTQTASSVSAAVGGTVTINCQSSQSVYKNNDLSWYQQKPRQPPKLLIYQASKLASGVPSRFKGSGSGTQFTLTIGDLECDDGATYYCAGGYTASIYAFGGGTEVVVKG
# notes: Rabbit monoclonal IgG from a hybridoma subclone; Only VH and VL are tied to the clone by name; also called mAB145-12; mAb145-12
# B2: rabbit monoclonal anti-CD95L antibody clone 119-4 (antibody, V domains shown)
# VH: QSLEESGGDLVKPGGTLTLTCTTSGFSFSDHYWMCWVRQAPGKGLEWIACIYTADSDSYYASWAKGRFTISKTSSTTVTLQMTSLTAADTATYFCARNGAYAGGPYGDLWGPGTLVTVSS
# VL: DIVMTQTPSSVEAAVGGTVTIKCQASQSIRTSLVWYQQKPGQPPKLLIYKASDLPSGVPSRFKGSGSGTQFTLTISDLECADAATYYCQSYDFRDTINNGHSFGGGTEVVVKG
# notes: Rabbit monoclonal IgG from a hybridoma subclone, detected with anti-rabbit IgG; Only VH and VL are tied to the clone by name; also called mAb119-4
# Key:
# [1] = molecular target: CD95L on the cell surface of KFL9 cells (UniProt P48023); experiment: flow cytometry on KFL9 cells
# [2] = molecular target: macaca fascicularis CD95L-T4 (macaca fascicularis) (UniProt P63308); experiment: ELISA, macaca fascicularis CD95L-T4 coated
# [3] = molecular target: mus musculus CD95L-T4 (mus musculus) (UniProt P41047); experiment: ELISA, mus musculus CD95L-T4 coated
Binder,binding [1],binding [2],binding [3]
B1,binds,–,–
B2,–,binds,binds
